Measurements published in the supplement of paper PMC4604168 (melanoma cell lines).
This is one part of the list. Single values are uncertain, as repeats are few or missing.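 Cells were imaged in 1,536-well plates, and nuclei stained with an antibody against cleaved PARP were counted against all DNA-stained nuclei to give the apoptosis fraction. Screening doses were chosen to leave most cells alive, and resting and induced cleaved-PARP levels differ strongly between cell lines.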

System: 501Mel
Test: cleaved PARP positive nuclei fraction relative to DMSO control; melanoma cells; higher = more apoptosis
Details: library dose: low library concentration; 72 h

| SMILES | cleaved PARP positive nuclei fraction |
| --- | --- |
| CC1(C)NC(=O)N(c2ccc([N+](=O)[O-])c(C(F)(F)F)c2)C1=O [nilutamide] + C=CCn1c(=O)c2cnc(Nc3ccc(N4CCN(C)CC4)cc3)nc2n1-c1cccc(C(C)(C)O)n1 [MK1775] (first compound 1 µM, partner dose 0.02 µM) | 95.6% |
| Nc1cccc2c1CN(C1CCC(=O)NC1=O)C2=O (configuration not stated) [lenalidomide] + CC1(C)NC(=O)N(c2ccc([N+](=O)[O-])c(C(F)(F)F)c2)C1=O [nilutamide] (first compound 1 µM, partner dose 1 µM) | 183% |
| CO[C@@H]1[C@H](N(C)C(=O)c2ccccc2)C[C@H]2O[C@]1(C)n1c3ccccc3c3c4c(c5c6ccccc6n2c5c31)C(=O)NC4 [Midostaurin] + NCC(=O)Nc1ccc(-n2nc(C(F)(F)F)cc2-c2ccc3c(ccc4ccccc43)c2)cc1 [OSU03012] (first compound 0.08 µM, partner dose 1 µM) | 474% |
| C=CCn1c(=O)c2cnc(Nc3ccc(N4CCN(C)CC4)cc3)nc2n1-c1cccc(C(C)(C)O)n1 + C[C@@H]1CCN(C(=O)CC#N)C[C@@H]1N(C)c1ncnc2[nH]ccc12 [CP690550] (first compound 0.02 µM, partner dose 1 µM) | 52% |
| C=CCNC1=C2C[C@@H](C)C[C@H](OC)[C@H](O)[C@@H](C)/C=C(\C)[C@H](OC(N)=O)[C@@H](OC)/C=C\C=C(/C)C(=O)NC(=CC1=O)C2=O [Tanespimycin] + C=CCn1c(=O)c2cnc(Nc3ccc(N4CCN(C)CC4)cc3)nc2n1-c1cccc(C(C)(C)O)n1 [MK1775] (first compound 0.002 µM, partner dose 0.02 µM) | 85% |
| CC(C)(C)c1cnc(CSc2cnc(NC(=O)C3CCNCC3)s2)o1 + Cc1cc(N2CCOCC2)cc2[nH]c(-c3c(NC[C@@H](O)c4cccc(Cl)c4)cc[nH]c3=O)nc12 [BMS536924] (first compound 0.01 µM, partner dose 0.2 µM) | 92.1% |
| Cc1ccc(NC(=O)c2cccc(N(C)C)c2)cc1NC(=O)c1ccc(O)cc1 + NCC(=O)Nc1ccc(-n2nc(C(F)(F)F)cc2-c2ccc3c(ccc4ccccc43)c2)cc1 [OSU03012] (first compound 2 µM, partner dose 1 µM) | 192% |
| OCc1c[nH]c2ccccc12 [Indole-3-carbinol] + O=C(CCCCCCC(=O)Nc1ccccc1)NO [vorinostat] (first compound 0.8 µM, partner dose 0.08 µM) | 165% |
| C=CCn1c(=O)c2cnc(Nc3ccc(N4CCN(C)CC4)cc3)nc2n1-c1cccc(C(C)(C)O)n1 + NCC(=O)Nc1ccc(-n2nc(C(F)(F)F)cc2-c2ccc3c(ccc4ccccc43)c2)cc1 [OSU03012] (first compound 0.02 µM, partner dose 1 µM) | 436% |
| COCC[n+]1c2c(n(Cc3cnccn3)c1C)C(=O)c1ccccc1C2=O + CN(NC(=O)CC(=O)NN(C)C(=S)c1ccccc1)C(=S)c1ccccc1 [STA4783] (first compound 0.0004 µM, partner dose 0.006 µM) | 705% |
| Cn1nnc2c(C(N)=O)ncn2c1=O [temozolomide] + CC1(C)NC(=O)N(c2ccc([N+](=O)[O-])c(C(F)(F)F)c2)C1=O [nilutamide] (first compound 2 µM, partner dose 1 µM) | 102% |
| COCC[n+]1c2c(n(Cc3cnccn3)c1C)C(=O)c1ccccc1C2=O + O=C(CCCCCCC(=O)Nc1ccccc1)NO [vorinostat] (first compound 0.0004 µM, partner dose 0.08 µM) | 168% |

2 entries drawn at random from those above, as already listed:

| SMILES | cleaved PARP positive nuclei fraction |
| --- | --- |
| OCc1c[nH]c2ccccc12 [Indole-3-carbinol] + O=C(CCCCCCC(=O)Nc1ccccc1)NO [vorinostat] (first compound 0.8 µM, partner dose 0.08 µM) | 165% |
| C=CCn1c(=O)c2cnc(Nc3ccc(N4CCN(C)CC4)cc3)nc2n1-c1cccc(C(C)(C)O)n1 + NCC(=O)Nc1ccc(-n2nc(C(F)(F)F)cc2-c2ccc3c(ccc4ccccc43)c2)cc1 [OSU03012] (first compound 0.02 µM, partner dose 1 µM) | 436% |

System: A101D
Test: as above
Details: library dose: low library concentration; 72 h

| SMILES | cleaved PARP positive nuclei fraction |
| --- | --- |
| Cc1nc(Nc2ncc(C(=O)Nc3c(C)cccc3Cl)s2)cc(N2CCN(CCO)CC2)n1 [dasatanib] + O=C(CCCCCCC(=O)Nc1ccccc1)NO [vorinostat] (first compound 0.004 µM, partner dose 0.08 µM) | 98.3% |
| Nc1cccc2c1CN(C1CCC(=O)NC1=O)C2=O (configuration not stated) [lenalidomide] + CC(C)(C)c1cnc(CSc2cnc(NC(=O)C3CCNCC3)s2)o1 [SNS-032] (first compound 1 µM, partner dose 0.01 µM) | 79.9% |
| OCc1c[nH]c2ccccc12 [Indole-3-carbinol] + Cc1ccc(NC(=O)c2cccc(N(C)C)c2)cc1NC(=O)c1ccc(O)cc1 [ZM336372] (first compound 0.8 µM, partner dose 2 µM) | 36.7% |
| COc1cc(Nc2ncc(F)c(Nc3ccc4c(n3)NC(=O)C(C)(C)O4)n2)cc(OC)c1OC [Tamatinib] + COc1cc2c(Oc3ccc4[nH]c(C)cc4c3F)ncnc2cc1OCCCN1CCCC1 [cediranib] (first compound 0.4 µM, partner dose 0.4 µM) | 205% |
| C#Cc1cccc(Nc2ncnc3cc(OCCOC)c(OCCOC)cc23)c1 [erlotinib] + CC(C)(C)c1cnc(CSc2cnc(NC(=O)C3CCNCC3)s2)o1 [SNS-032] (first compound 0.8 µM, partner dose 0.01 µM) | 80.9% |
| Clc1ccc(Nc2nnc(Cc3ccncc3)c3ccccc23)cc1 [vatalanib] + Cc1cc(N2CCOCC2)cc2[nH]c(-c3c(NC[C@@H](O)c4cccc(Cl)c4)cc[nH]c3=O)nc12 [BMS536924] (first compound 2 µM, partner dose 0.2 µM) | 154% |
| CC(=O)c1c(C)c2cnc(Nc3ccc(N4CCNCC4)cn3)nc2n(C2CCCC2)c1=O [palbociclib] + Cn1cncc1[C@@](N)(c1ccc(Cl)cc1)c1ccc2c(c1)c(-c1cccc(Cl)c1)cc(=O)n2C [tipifarnib] (first compound 0.04 µM, partner dose 0.01 µM) | 62.2% |
| C[C@]1(c2nc3c(C(N)=O)cccc3[nH]2)CCCN1 [Veliparib] + Cc1ccc(NC(=O)c2cccc(N(C)C)c2)cc1NC(=O)c1ccc(O)cc1 [ZM336372] (first compound 1.4 µM, partner dose 2 µM) | 50.2% |
| C=CCn1c(=O)c2cnc(Nc3ccc(N4CCN(C)CC4)cc3)nc2n1-c1cccc(C(C)(C)O)n1 + CN(C)S(=O)(=O)c1ccc2c(c1)/C(=C/c1cc3c([nH]1)CCCC3)C(=O)N2 [SU6656] (first compound 0.02 µM, partner dose 0.4 µM) | 117% |
| Clc1ccc(Nc2nnc(Cc3ccncc3)c3ccccc23)cc1 [vatalanib] + O=C(CCCCCCC(=O)Nc1ccccc1)NO [vorinostat] (first compound 2 µM, partner dose 0.08 µM) | 91.4% |
| OCc1c[nH]c2ccccc12 [Indole-3-carbinol] + COc1cc(Nc2ncc(F)c(Nc3ccc4c(n3)NC(=O)C(C)(C)O4)n2)cc(OC)c1OC [Tamatinib] (first compound 0.8 µM, partner dose 0.4 µM) | 93.9% |
| COCC[n+]1c2c(n(Cc3cnccn3)c1C)C(=O)c1ccccc1C2=O + C=CCn1c(=O)c2cnc(Nc3ccc(N4CCN(C)CC4)cc3)nc2n1-c1cccc(C(C)(C)O)n1 [MK1775] (first compound 0.0004 µM, partner dose 0.02 µM) | 188% |
| C=CCNC1=C2C[C@@H](C)C[C@H](OC)[C@H](O)[C@@H](C)/C=C(\C)[C@H](OC(N)=O)[C@@H](OC)/C=C\C=C(/C)C(=O)NC(=CC1=O)C2=O [Tanespimycin] + COc1cc(Nc2ncc(F)c(Nc3ccc4c(n3)NC(=O)C(C)(C)O4)n2)cc(OC)c1OC [Tamatinib] (first compound 0.002 µM, partner dose 0.4 µM) | 524% |
| OCc1c[nH]c2ccccc12 [Indole-3-carbinol] + C=CCn1c(=O)c2cnc(Nc3ccc(N4CCN(C)CC4)cc3)nc2n1-c1cccc(C(C)(C)O)n1 [MK1775] (first compound 0.8 µM, partner dose 0.02 µM) | 55.4% |
| Cc1ccc(NC(=O)c2cccc(N(C)C)c2)cc1NC(=O)c1ccc(O)cc1 + CN(NC(=O)CC(=O)NN(C)C(=S)c1ccccc1)C(=S)c1ccccc1 [STA4783] (first compound 2 µM, partner dose 0.006 µM) | 362% |
| Clc1ccc(Nc2nnc(Cc3ccncc3)c3ccccc23)cc1 [vatalanib] + COc1cc2c(Oc3ccc4[nH]c(C)cc4c3F)ncnc2cc1OCCCN1CCCC1 [cediranib] (first compound 2 µM, partner dose 0.4 µM) | 90.4% |
| Cn1nnc2c(C(N)=O)ncn2c1=O [temozolomide] + O=C(O)c1ccc(-c2c[nH]c3ncc(-c4ccccc4)cc23)cc1C1CCCC1 [GSK650394] (first compound 2 µM, partner dose 0.16 µM) | 87.9% |
| CC1(C)NC(=O)N(c2ccc([N+](=O)[O-])c(C(F)(F)F)c2)C1=O [nilutamide] + CC(C)(C)c1cnc(CSc2cnc(NC(=O)C3CCNCC3)s2)o1 [SNS-032] (first compound 1 µM, partner dose 0.01 µM) | 44% |
| CC(C)(C)c1cnc(CSc2cnc(NC(=O)C3CCNCC3)s2)o1 + CN(C)S(=O)(=O)c1ccc2c(c1)/C(=C/c1cc3c([nH]1)CCCC3)C(=O)N2 [SU6656] (first compound 0.01 µM, partner dose 0.4 µM) | 106% |
| CC(=O)c1c(C)c2cnc(Nc3ccc(N4CCNCC4)cn3)nc2n(C2CCCC2)c1=O [palbociclib] + CN(C)S(=O)(=O)c1ccc2c(c1)/C(=C/c1cc3c([nH]1)CCCC3)C(=O)N2 [SU6656] (first compound 0.04 µM, partner dose 0.4 µM) | 313% |
